Measurements as given in US12491217B2, “Compositions and methods for promoting healthy neural development in an unborn baby” (The Regents of the University of California, priority 2019, dated 2025).

Experiment: Metabolomics of fetal brain at E14.5
Format: in vivo, C57Bl/6J mice
Settings: metabolite level in E14.5 fetal brain; for fold of change ABX/SPF: ANOVA contrast ABX/SPF; for fold of change GF/ABX: ANOVA contrast GF/ABX; for fold of change GF/SPF: ANOVA contrast GF/SPF; for fold of change GF/Sp: ANOVA contrast GF/Sp; for fold of change Sp/ABX: ANOVA contrast Sp/ABX; for fold of change Sp/SPF: ANOVA contrast Sp/SPF

Compound	fold of change ABX/SPF	fold of change GF/ABX	fold of change GF/SPF	fold of change GF/Sp	fold of change Sp/ABX	fold of change Sp/SPF
Cc1cn([C@H]2C[C@H](O)[C@@H](CO)O2)c(=O)nc1N [compound 3589]	0.35	1.04	0.36	0.79	1.31	0.46
Cc1c[nH]c(=O)[nH]c1=O [compound 3599]	0.81	1.18	0.96	0.88	1.35	1.09
CC(CN)C(=O)O (stereo not drawn) [compound 3602]	0.91	0.87	0.80	1.18	0.74	0.68
COP(=O)(O)O [compound 3603]	0.74	1.02	0.75	1.12	0.91	0.67
Nc1ncnc2c1ncn2[C@@H]1O[C@H](CO)[C@@H](OP(=O)(O)OC[C@H]2O[C@@H](n3ccc(=O)[nH]c3=O)[C@H](O)[C@@H]2O)[C@H]1O [compound 3607]	1.11	0.40	0.44	0.90	0.44	0.49
Nc1ncnc2c1ncn2C1OC(COP(=O)(O)OC2C(CO)OC(n3cnc4c(N)ncnc43)C2O)C(O)C1O (stereo not drawn) [compound 3608]	1.00	0.61	0.61	1.08	0.56	0.56
NC(=O)c1ccc[n+]([C@@H]2O[C@H](CO)[C@@H](O)[C@H]2O)c1 [compound 3627]	0.70	1.03	0.72	0.82	1.26	0.88
NC(=O)c1ccc[n+]([C@@H]2O[C@H](COP(=O)([O-])OP(=O)(O)OC[C@H]3O[C@@H](n4cnc5c(N)ncnc54)[C@H](O)[C@@H]3O)[C@@H](O)[C@H]2O)c1 [compound 3628]	0.85	1.04	0.88	1.04	1.00	0.85
C[n+]1cccc(C(N)=O)c1 [compound 3636]	1.35	1.04	1.41	0.89	1.17	1.58
C[n+]1cccc(C(=O)[O-])c1 [compound 3641]	0.58	0.95	0.55	0.61	1.55	0.90
Cn1cc(C(N)=O)ccc1=O [compound 3643]	1.08	0.86	0.93	0.58	1.48	1.59
Cn1ccc(=O)c(C(N)=O)c1 [compound 3644]	1.04	0.94	0.97	0.59	1.58	1.65
Cc1cc2nc3c(=O)[nH]c(=O)nc-3n(C[C@H](O)[C@H](O)[C@H](O)COP(=O)(O)OP(=O)(O)OC[C@H]3O[C@@H](n4cnc5c(N)ncnc54)[C@H](O)[C@@H]3O)c2cc1C [compound 3649]	0.77	1.00	0.77	0.88	1.13	0.87
Cc1cc2nc3c(=O)[nH]c(=O)nc-3n(C[C@H](O)[C@H](O)[C@H](O)COP(=O)(O)O)c2cc1C [compound 3650]	0.85	0.83	0.71	0.92	0.91	0.77
CC(C)(CO)[C@@H](O)C(=O)NCCC(=O)O [compound 3651]	0.80	0.90	0.72	0.74	1.22	0.98
CC(C)(COP(=O)(O)O)[C@@H](O)C(=O)NCCC(=O)NCCS [compound 3653]	0.97	0.71	0.69	1.05	0.68	0.65
CC(C)(COP(=O)(O)OP(=O)(O)OCC1OC(n2cnc3c(N)ncnc32)C(O)C1OP(=O)(O)O)C(O)C(=O)NCCC(=O)NCCS (stereo not drawn) [compound 3656]	0.94	0.89	0.84	1.03	0.87	0.81
